This is an account of results in patent US9926576B2, “Prevention of bacterial growth in fermentation processes” (E. I. DU PONT DE NEMOURS AND COMPANY, priority 2007, dated 2018).

The test system of the series is bacteria in fermentation system. Briefly: Batch fermentations at dry-grind ethanol plant, SCD treated vs antibiotic treated. The conditions noted are these: means of 16 antibiotic (0.0001%) and 15 SCD (final 0.041%) batch fermentations.

On to Virginiamycin [Antibiotic], for which the “Acetic Acid, %” value (22 Hours) came out at 0.02%; the “Acetic Acid, %” value (36 Hours) stood at 0.03%; the “Acetic Acid, %” value (10 hours) stood at 0.03%; the “Acetic Acid, %” value (Drop (end of fermentation)) is 0.05%; the “Acetic Acid, %” value (Inoculant) turned out to be 0.02%.
